In patent publication US12624096B2, “Anti-tau antibodies and methods of use thereof” (GTInvent Limited, priority 2020, dated 2026):

Test system: hT40, dGA, dGAE and truncated tau fragments/peptides
Assay: Binding ELISA for epitope mapping with truncated tau proteins and biotinylated 13mer peptides
Parameters: species or system human
Details: for hT40 binding region: mAbs, Table 25 (Example 28); for Binding region hT40: own antibodies, as noted in Simoa Table 26
Protocol: A series of binding ELISA was performed using various truncated versions of the tau protein and 13mer peptide libraries spanning the entire hT40 molecule for mapping the epitopes of anti-tau scAbs (Full list of protein antigens used is given in Table 14). In general, ELISA plates were coated with 1 μg/ml hT40 or dGA or dGAE or other truncated versions of the protein and in the case of biotinylated peptides, plates were coated with 5 μg/ml Streptavidin followed by 1 μg/ml biotinylated peptide. The plates were blocked with 2% MPBS and scAb samples added at desired starting concentrations and double diluted across the plate. Binding was detected using anti-Human C Kappa HRP conjugated secondary antibody and the resulting immunoreaction was developed and absorbance values measured as described above.
Similarly, dGA binding ‘NS’, ‘S’ and ‘M’ group scAbs were subjected to further antigen binding ELISA using shorter tau proteins and biotinylated 13mer peptides as shown below (FIGS. 10A-F) and (FIGS. 11A-R).
For anti-tau mAb SPR measurements (Biacore X100™) and epitope mapping, the same methodologies described above (see Example 16) were followed.

B1: CE2: anti-tau clone referred to as CE2 or E1B8, SEQ ID NO: 366 (protein)
scFv: QVQLQESGPSLVKPSQTLSLTCTVSGFSLTNYPVGWVRQAPGKALEWIGNIENDGSANYASALKSRLSITRDTSKNQVSLSLSSATTEDTAVYYCGREFGGSDGYTYFVDIDYWGPGLLVTVSSEGKSSGASGESKVDDQAVLTQPSSVSKSLGQSVSITCSGSSSNVGYGNYVSWFQQVPGSAPKILIYGATSRASGVPDRFSGSRSGNTATLTITSLQAEDEADYYCASYDGSSSGVFGSGTRLTVLG
modifications: CE2/E1B8 amino acid sequence
  hT40 binding region: 319-331

B2: MD9/MoD9: anti-tau clone, SEQ ID NO: 373 (protein)
scFv: QVRLQESGPSLVKSSQTLSLTCTVSGFSLTRESIAWVRQAPGKVPEWLGGVGIDGTSYYSPALKSRLSITRDTSKSQASLSLSSVATEDTAMYYCARNYIDFEYWGPGLLVTVSSEGKSSGASGESKVDDQAVLTQLSSVSGSLGQRISITCSGSSSNVGIYDVSWFQQLPGSGLRTVIYGTNNRPSGVPDRFSGSRSGNTATLTISSLQSEDEAIYYCAAGDSSTIAVFGSGTRLTVLG
modifications: MD9 amino acid sequence
  hT40 binding region: 373-385

B3: 3aH6: anti-tau clone, SEQ ID NO: 423 (protein)
scFv: QVQLQESGPSLVKPSQTLSLTCTVSGFSLSSNGVGWVRQAPGKVPEWLGDISSVGKKYANPALKSRLSFTRDTSKSQVSLSLSSVTTEDTAVYYCVKCRDGGVTYGYDIDYWGPGLLVTASSEGKSSGASGESKVDDQAVVTQPSSVSGSLGQSVSITCSGSSGNVGYGDYVSWFQQFHGSAPKLLIYGATNLASGVPARFSGSRSGNTATLTISSLHAEDEADYYCASYDSSSGGVFGSGTRLTVLG
modifications: 3aH6 amino acid sequence
  hT40 binding region: 1-15

B4: 3bG4: anti-tau clone, SEQ ID NO: 425 (protein)
scFv: QVQLQESGPSLVKPSQTLSLTCTISGFSLISNGVGWVRQAPGKVPEWVGDIASSGKAYSNPALKSRLSITRDTSKSQVSLSLRSVTTEDTAVYYCVRCRDGGVTYGYDIDYWGPGLLVTVSSEGKSSGASGESKVDDQAVLTQPSSVSKSLGQSVSITCSGSTSNVGSGNDVSWFQQVPGSAPKLLFYGATNRASGVPDRFSGSRSGNTATLTITSLQAEDEADYYCGSYDSNSGGIFGSGTRLTVLG
modifications: 3bG4 amino acid sequence
  hT40 binding region: 1-15
  Binding region hT40: (Binding region hT40 1-15)

B5: 3aG3: anti-tau clone, SEQ ID NO: 424 (protein)
scFv: QVQLQESGPSLVKPSQTLSLTCTVSGFSLSSNGVGWVRQAPGKVPEWVGDISSSGKAYANPALKSRLSITRDTAKTQVFLSLSSVTTEDTAVYYCVRCRDGGVSYGYDIDYWGPGLLVTVSSEGKSSGASGESKVDDQAVLTQPPSVSGSPGQRVSITCSGSSSNIGGGNYLSWFQQVPGSAPKLLIYGATSRASGVPDRFSGSRSGNTATLTISSLQAEDEADYYCASFDTSSGGIFGAGTRLTVLG
modifications: 3aG3 amino acid sequence
  hT40 binding region: 1-15

B6: 3bD11 (protein)
scFv: RVRLQGSGPSLVKPSQTLSLTCTVSGFSFDSYYVGWVRQAPGKALEWLGNIYSTGRAFYNPALKSRLSITRDTSKSQVSLSVSSVTIEDTALYYCVRGSYYHGGGNGMVDFFDYWSPGLLVTVSSEGKSSGASGESKVDDQVVRTQPSSVSGSLGQRVSITCSGSSSNVGYGNYVGWFQQVPGSAPKLLIYAATSRASGVPDRFSGSRSGNTATLTIDSLQAEDEADYYCSSYQRGNTGVFGSGTRLTVLG
  hT40 binding region: 37-49

B7: CB7: anti-tau clone, SEQ ID NO: 364 (protein)
scFv: QVQLQESGPSLVKPSQTLSLTCTVSGFSLTNYRVGWVRQAPGKALEWVSNIRSGGTTWYNPALKSRLSITADTSKSQVSLSLSSVTTEDTAVYYCARDSSGDLYAYDYWGPGLLVTVSSEGKSSGASGESKVDDQAVLTQPSSVSRSLGQSVSMTCSGSSSNVGYGNYMAWFQQVPGSAPKLLIYGATSRASGVPDRFSGSRSGNTATLTISSLQAEDEADYYCASYDSTSGGVFGSGTRLTVLG
modifications: CB7 amino acid sequence
  Binding region hT40: (Binding region hT40 13-25)

B8: S1D12: anti-tau clone from immunised sheep, SEQ ID NO: 32 (protein)
scFv: QVQLQESGPSLVKPSQTLSLTCTVSGFSLNNNAVGWVRQAPGKVPESLVGCSSDGTCYYNSALKSRLDITRDTSKNQISLSLSSVTTDDAAVYYCTRGHYSIYGYDYLGTIDYWGPGLLVTVSSEGKSSGASGESKVDDQAVLTQPSSVSGSLGQRVSITCSGSSSNVGGGNSVGWYQHLPGSGLKTIIYDTNSRPSGVPDRFSGSRSGNTATLTINSLQAEDEGDYYCVTGDSTTHDDLVGSGTRLTVLG
modifications: S1D12 amino acid sequence
  Binding region hT40: (Binding region hT40 337-355)

B9: S1G2: anti-tau clone, SEQ ID NO: 81 (protein)
scFv: QVQLQESGPSLVKPSQTLSLTCTVSGFSLTSNSVGWVRQAPGKAPEWVAGIDTDGEEGYNPALNSRLSITRDTSKSQVSLSLSSVTSEDTAVYYCGRSYRADGLAYGYVQAIDYWGPGLLVTVSSEGKSSGASGESKVDDQAVVTQPSSVSGSLGQRVSITCSGSFIGISSVGWFQQLPGSGLRTIIVASDGRPSGVPDRFSMSKSGNTATLTISSLQAEDEADYFCGSSDRTPYTGVFGSGTRLTVLG
modifications: S1G2 amino acid sequence
  Binding region hT40: (Binding region hT40 367-379)
